Some of these results come from one statement about several compounds together.
Test system: E. coli LigA
Assay type: biochemical
Settings: specific activity by protein titration under steady-state conditions, normalized to wild-type ligase
Experimental: FIG. 12A: Aliquots (5 μg) of wild-type (WT) E. coli ligase, N-terminal deletion mutants NΔ38 and NΔ78, and the full-length ligase proteins containing the indicated alanine mutations in domain Ia were analyzed by SDS-PAGE. A Coomassie blue-stained gel is shown. FIG. 12B: Ligase adenylation reaction mixtures (20 μl) containing 50 mM Tris-HCl (pH 7.5), 5 mM DTT, 5 mM MgCl2, 1 μM [α-^32P]NAD^+ and 8 pmol of WT ligase, NΔ38, NΔ78, or the indicated alanine mutants were incubated for 5 min at 37° C. The reaction products were resolved by SDS-PAGE and visualized by autoradiography. FIG. 12C: Nick joining reaction mixtures (20 μl) containing 50 mM Tris-HCl (pH 7.5), 10 mM (NH4)2SO4, 5 mM DTT, 5 mM MgCl2, 20 μM NAD^+, 1 pmol of ^32P-labeled nicked DNA, and increasing amounts of WT ligase or the indicated alanine mutants were incubated for 10 min at 22° C. The extents of ligation are plotted as a function of input protein. […]
To evaluate the roles of charge, hydrogen bonding potential, and steric constraints in the functions of the domain Ia residues implicated in the step 1 reaction with NAD^+, the effects of conservative substitutions were tested. […] The specific activity of each mutant was determined under steady-state conditions by protein titration and normalized to the specific activity of wild-type ligase.

Sequences of proteins named here, by UniProt entry; tags and fusion partners are left off. A change or cut given only in a name is not applied to a line headed by its entry.
UniProt P15042: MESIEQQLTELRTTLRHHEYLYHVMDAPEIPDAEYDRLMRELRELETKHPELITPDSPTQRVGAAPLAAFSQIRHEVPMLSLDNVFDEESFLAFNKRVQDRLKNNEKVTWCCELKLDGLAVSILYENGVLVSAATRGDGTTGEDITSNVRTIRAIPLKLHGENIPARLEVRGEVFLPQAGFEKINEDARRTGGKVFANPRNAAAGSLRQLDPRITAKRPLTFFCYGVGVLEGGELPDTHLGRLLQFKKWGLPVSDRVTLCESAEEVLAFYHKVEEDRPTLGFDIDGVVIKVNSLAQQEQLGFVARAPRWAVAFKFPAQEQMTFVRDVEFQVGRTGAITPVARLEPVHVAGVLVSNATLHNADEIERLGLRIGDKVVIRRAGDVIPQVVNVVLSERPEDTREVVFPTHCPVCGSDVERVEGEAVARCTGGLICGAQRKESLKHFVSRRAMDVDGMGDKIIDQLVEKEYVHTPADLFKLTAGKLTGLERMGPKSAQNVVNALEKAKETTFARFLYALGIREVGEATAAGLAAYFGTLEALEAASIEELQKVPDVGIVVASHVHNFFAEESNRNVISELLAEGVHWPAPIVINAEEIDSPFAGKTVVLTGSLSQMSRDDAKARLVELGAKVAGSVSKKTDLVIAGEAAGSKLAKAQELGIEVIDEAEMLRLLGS

| Molecule | Nick Joining Activity (% of WT) |
| --- | --- |
| H23A: E. coli LigA with His23 replaced by alanine (protein, UniProt P15042 1-671, looked up, variant H23A) DNA ligase: MESIEQQLTELRTTLRHHEYLYAVMDAPEIPDAEYDRLMRELRELETKHPELITPDSPTQRVGAAPLAAFSQIRHEVPMLSLDNVFDEESFLAFNKRVQDRLKNNEKVTWCCELKLDGLAVSILYENGVLVSAATRGDGTTGEDITSNVRTIRAIPLKLHGENIPARLEVRGEVFLPQAGFEKINEDARRTGGKVFANPRNAAAGSLRQLDPRITAKRPLTFFCYGVGVLEGGELPDTHLGRLLQFKKWGLPVSDRVTLCESAEEVLAFYHKVEEDRPTLGFDIDGVVIKVNSLAQQEQLGFVARAPRWAVAFKFPAQEQMTFVRDVEFQVGRTGAITPVARLEPVHVAGVLVSNATLHNADEIERLGLRIGDKVVIRRAGDVIPQVVNVVLSERPEDTREVVFPTHCPVCGSDVERVEGEAVARCTGGLICGAQRKESLKHFVSRRAMDVDGMGDKIIDQLVEKEYVHTPADLFKLTAGKLTGLERMGPKSAQNVVNALEKAKETTFARFLYALGIREVGEATAAGLAAYFGTLEALEAASIEELQKVPDVGIVVASHVHNFFAEESNRNVISELLAEGVHWPAPIVINAEEIDSPFAGKTVVLTGSLSQMSRDDAKARLVELGAKVAGSVSKKTDLVIAGEAAGSKLAKAQELGIEVIDEAEMLRLLGS | 9-10 % of WT |
| Y22F: E. coli LigA with Tyr22 replaced by Phe (protein, UniProt P15042 1-671, looked up, variant Y22F) DNA ligase: MESIEQQLTELRTTLRHHEYLFHVMDAPEIPDAEYDRLMRELRELETKHPELITPDSPTQRVGAAPLAAFSQIRHEVPMLSLDNVFDEESFLAFNKRVQDRLKNNEKVTWCCELKLDGLAVSILYENGVLVSAATRGDGTTGEDITSNVRTIRAIPLKLHGENIPARLEVRGEVFLPQAGFEKINEDARRTGGKVFANPRNAAAGSLRQLDPRITAKRPLTFFCYGVGVLEGGELPDTHLGRLLQFKKWGLPVSDRVTLCESAEEVLAFYHKVEEDRPTLGFDIDGVVIKVNSLAQQEQLGFVARAPRWAVAFKFPAQEQMTFVRDVEFQVGRTGAITPVARLEPVHVAGVLVSNATLHNADEIERLGLRIGDKVVIRRAGDVIPQVVNVVLSERPEDTREVVFPTHCPVCGSDVERVEGEAVARCTGGLICGAQRKESLKHFVSRRAMDVDGMGDKIIDQLVEKEYVHTPADLFKLTAGKLTGLERMGPKSAQNVVNALEKAKETTFARFLYALGIREVGEATAAGLAAYFGTLEALEAASIEELQKVPDVGIVVASHVHNFFAEESNRNVISELLAEGVHWPAPIVINAEEIDSPFAGKTVVLTGSLSQMSRDDAKARLVELGAKVAGSVSKKTDLVIAGEAAGSKLAKAQELGIEVIDEAEMLRLLGS | 9-10 % of WT |

From US6787341B2, “Pharmacological targeting of bacterial DNA ligase for treatment and prevention of bacterial infections” (priority 2001, dated 2004)
